Measured values: PubChem BioAssay (NCATS)
This list was built around the results that the source calls inconclusive (neither active nor inactive); the mix of calls is not that of the screen. For part of these data: Potencies of inconclusive entries are doubtful fits and often do not repeat. Active and inactive are the calls of the source. Calls follow the shape of the dose curve; as a rule, active = well fitted curve in the direction sought with a large enough effect; inconclusive = small, poorly fitted or top-dose-only effect, or another doubt; inactive = no such curve, though single readings can be large; an effect the other way counts as inactive or inconclusive.

What was measured:
[1] = Quantitative High-Throughput drug screen in 47 multiple myeloma cell lines against the NCATS MIPE library collection: JIM3_ECACC cell viability assay (AID 1918963; also: nearly all actives have a fitted effect of over 35% in size); details: JIM3 myeloma viability, CellTiter-Glo ATP, 48 h; viability, percent of control: at 45.8 µM (top of the series) unless noted
How it was run: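 Viability readout: CellTiter-Glo luminescence following 5 min room-temperature incubation with reagent. Prior exposure: 48 h, 37C, humidified 5% CO2, 500 cells per well.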

[2] = Quantitative High-Throughput drug screen in 47 multiple myeloma cell lines against the NCATS MIPE library collection: JIM1_ECACC cell viability assay (AID 1918964); details: JIM1 myeloma viability, CellTiter-Glo ATP luminescence, 48 h; viability (% of DMSO): at 45.8 µM (top of the series)
How it was run: (§1)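 Myeloma cells (500 per well) were exposed to MIPE 4.0 compounds by pin transfer and incubated 48 hours at 37C, 5% CO2. Viability was read as ATP by CellTiter-Glo luminescence, normalised to DMSO (100%) and media-only (0%) wells.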

[3] = Quantitative High-Throughput drug screen in 47 multiple myeloma cell lines against the NCATS MIPE library collection: KMS12PE_JCRB cell viability assay (AID 1918972); details: KMS12PE myeloma viability, CellTiter-Glo ATP, 48 h; viability: at 45.8 µM (top of the series); also: nearly all actives have a fitted effect of over 30% in size
How it was run: (§2)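 Approved and investigational drugs from MIPE 4.0 were added by pin tool to 500 cells per well. After 48 hours at 37C, ATP-based CellTiter-Glo luminescence indicated remaining viability.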

[4] = Quantitative High-Throughput drug screen in 47 multiple myeloma cell lines against the NCATS MIPE library collection: KMS20_JCRB cell viability assay (AID 1918973); details: CellTiter-Glo ATP, 48 h; viability (% of DMSO): at 45.8 µM (top of the series); also: nearly all actives have a fitted effect of over 45% in size
How it was run: as §1

[5] = Quantitative High-Throughput drug screen in 47 multiple myeloma cell lines against the NCATS MIPE library collection: KMS21BM_JCRB cell viability assay (AID 1918974); details: ATP luminescence, 48 h; viability: at 45.8 µM (top of the series) unless noted
How it was run: as §1

[6] = Quantitative High-Throughput drug screen in 47 multiple myeloma cell lines against the NCATS MIPE library collection: MOLP8_DSMZ cell viability assay (AID 1918977); details: MOLP8 myeloma viability, CellTiter-Glo ATP luminescence, 48 h; viability (% of control): at 45.8 µM (top of the series); also: nearly all actives have a fitted effect of over 45% in size
How it was run: (§3)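 MIPE 4.0 approved/investigational drugs; 500 cells/well; 48 h 37 °C humidified 5% CO2; CTG luminescence readout; DMSO = 100%, media = 0% viability.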

[7] = Quantitative High-Throughput drug screen in 47 multiple myeloma cell lines against the NCATS MIPE library collection: NCIH929_DSMZ cell viability assay (AID 1918978); also: nearly all actives have a fitted effect of over 35% in size
How it was run: as §3

[8] = Quantitative High-Throughput drug screen in 47 multiple myeloma cell lines against the NCATS MIPE library collection: MM1R_ATCC cell viability assay (AID 1918981); also: nearly all actives have a fitted effect of over 35% in size
How it was run: as §3

[9] = Quantitative High-Throughput drug screen in 47 multiple myeloma cell lines against the NCATS MIPE library collection: LP1_DSMZ cell viability assay (AID 1918982); also: nearly all actives have a fitted effect of over 35% in size
How it was run: as §3

[10] = Quantitative High-Throughput drug screen in 47 multiple myeloma cell lines against the NCATS MIPE library collection: INA6_PLB cell viability assay (AID 1918965; also: nearly all actives have a fitted effect of over 55% in size); details: INA6 myeloma viability, CellTiter-Glo ATP luminescence, 48 h; viability (% of control): at 45.8 µM (top of the series)
How it was run: as §2

[11] = Quantitative High-Throughput drug screen in 47 multiple myeloma cell lines against the NCATS MIPE library collection: KMS27_JCRB cell viability assay (AID 1918970); details: KMS27 myeloma cells, CellTiter-Glo ATP viability, 48 h; viability (% of DMSO): at 45.8 µM (top of the series); also: nearly all actives have a fitted effect of over 30% in size
How it was run: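 CellTiter-Glo luminescence after 48 h drug exposure at 37 °C; 500 cells/well, 1536-well format, pin-tool compound addition; DMSO = 100%, media-only = 0% viability.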

[12] = Quantitative High-Throughput drug screen in 47 multiple myeloma cell lines against the NCATS MIPE library collection: KMS12BM_JCRB cell viability assay (AID 1918971); also: nearly all actives have a fitted effect of over 35% in size
How it was run: as §2

[13] = Quantitative High-Throughput drug screen in 47 multiple myeloma cell lines against the NCATS MIPE library collection: KMS26_JCRB cell viability assay (AID 1918975); details: KMS26 myeloma cells viability, CellTiter-Glo ATP, 48 h; viability (% of DMSO): at 45.8 µM (top of the series); also: nearly all actives have a fitted effect of over 45% in size
How it was run: as §2

[14] = Quantitative High-Throughput drug screen in 47 multiple myeloma cell lines against the NCATS MIPE library collection: MM1S_ATCC cell viability assay (AID 1918980); also: nearly all actives have a fitted effect of over 45% in size
How it was run: as §3

[15] = Quantitative High-Throughput drug screen in 47 multiple myeloma cell lines against the NCATS MIPE library collection: OCIMY1_PLB cell viability assay (AID 1918979); also: nearly all actives have a fitted effect of over 35% in size
How it was run: as §3

[16] = Quantitative High-Throughput drug screen in 47 multiple myeloma cell lines against the NCATS MIPE library collection: KMS28PE_JCRB cell viability assay (AID 1918983); also: nearly all actives have a fitted effect of over 35% in size
How it was run: as §3

[17] = Quantitative High-Throughput drug screen in 47 multiple myeloma cell lines against the NCATS MIPE library collection: MMM1_PLB cell viability assay (AID 1918976); also: nearly all actives have a fitted effect of over 35% in size
How it was run: as §3

[18] = Quantitative High-Throughput drug screen in 47 multiple myeloma cell lines against the NCATS MIPE library collection: JJN3_DSMZ cell viability assay (AID 1918966; also: nearly all actives have a fitted effect of over 50% in size); details: JJN3 myeloma cells viability, CellTiter-Glo ATP, 48 h; viability, % of DMSO: at 45.8 µM (top of the series)
How it was run: as §1

[19] = Quantitative High-Throughput drug screen in 47 multiple myeloma cell lines against the NCATS MIPE library collection: Karpas25_ECACC cell viability assay (AID 1918968; also: nearly all actives have a fitted effect of over 35% in size); details: Karpas25 myeloma viability, CellTiter-Glo ATP, 48 h; viability (% of control): at 45.8 µM (top of the series)
How it was run: as §1
Potency is read from the fitted curve at half-maximal effect.

CCOC(=O)c1c(CSc2ccccc2)n(C)c2cc(Br)c(O)c(CN(C)C)c12
active: Potency [6] 5.9 µM
inconclusive: Potency [1] 16.6 µM [cytotoxic, partial curve] | Potency [2] 23.5 µM [cytotoxic, partial curve] | Potency [3] 23.5 µM [cytotoxic, partial curve] | Potency [4] 16.6 µM [cytotoxic, partial curve, poor fit] | Potency [5] 5.26 µM [rising, partial curve, poor fit] | Potency [8] 20.9 µM [cytotoxic, single point] | Potency [9] 16.6 µM [cytotoxic, partial curve]
inactive: Potency [7]

CN(C)c1ccc(C2Nc3ccc4ccccc4c3C3=C2C(=O)CC(C)(C)C3)cc1Br (centres undefined)
inconclusive: Potency [1] 6.62 µM [cytotoxic, partial curve, poor fit] | Potency [10] 5.26 µM [cytotoxic, partial curve, poor fit] | Potency [11] 0.0132 µM [cytotoxic, full curve, poor fit] | Potency [12] 18.7 µM [cytotoxic, partial curve] | Potency [4] 4.69 µM [cytotoxic, partial curve, poor fit] | Potency [6] 2.96 µM [cytotoxic, partial curve, poor fit] | Potency [8] 16.6 µM [cytotoxic, partial curve]
inactive: Potency [14]
active: Potency [13] 16.6 µM

CC(CCc1ccc(O)cc1)NCCc1ccc(O)c(O)c1 (centres undefined)
inconclusive: Potency [1] 37.2 µM [cytotoxic, single point] | Potency [2] 14.8 µM [cytotoxic, partial curve, poor fit] | Potency [5] 14.8 µM [cytotoxic, partial curve, poor fit] | Potency [13] 37.2 µM [cytotoxic, single point] | Potency [6] 13.2 µM [cytotoxic, partial curve, poor fit] | Potency [7] 26.4 µM [cytotoxic, single point] | Potency [16] 20.9 µM [cytotoxic, partial curve]
active: Potency [12] 14.8 µM | Potency [15] 18.7 µM

Cc1nc(Nc2ncc(C(=O)Nc3c(C)cccc3Cl)s2)cc(N2CCN(CCO)CC2)n1
active: Potency [4] 0.332 µM | Potency [5] 0.209 µM
inconclusive: Potency [1] 8.33 µM [cytotoxic, partial curve] | Potency [2] 4.18 µM [cytotoxic, partial curve] | Potency [12] 1.32 µM [cytotoxic, full curve, poor fit] | Potency [13] 4.69 µM [cytotoxic, partial curve, poor fit] | Potency [17] 18.7 µM [cytotoxic, partial curve, poor fit] | Potency [6] 3.72 µM [cytotoxic, partial curve, poor fit] | Potency [7] 20.9 µM [cytotoxic, partial curve] | Potency [15] 20.9 µM [cytotoxic, partial curve] | Potency [14] 13.2 µM [cytotoxic, partial curve, poor fit] | Potency [8] 5.9 µM [cytotoxic, partial curve] | Potency [9] 7.43 µM [cytotoxic, partial curve] | Potency [16] 16.6 µM [cytotoxic, partial curve, poor fit]

Two successive records out of the list so far:
CC(CCc1ccc(O)cc1)NCCc1ccc(O)c(O)c1 (centres undefined)
inconclusive: Potency [1] 37.2 µM [cytotoxic, single point] | Potency [2] 14.8 µM [cytotoxic, partial curve, poor fit] | Potency [5] 14.8 µM [cytotoxic, partial curve, poor fit] | Potency [13] 37.2 µM [cytotoxic, single point] | Potency [6] 13.2 µM [cytotoxic, partial curve, poor fit] | Potency [7] 26.4 µM [cytotoxic, single point] | Potency [16] 20.9 µM [cytotoxic, partial curve]
active: Potency [12] 14.8 µM | Potency [15] 18.7 µM

Cc1nc(Nc2ncc(C(=O)Nc3c(C)cccc3Cl)s2)cc(N2CCN(CCO)CC2)n1
active: Potency [4] 0.332 µM | Potency [5] 0.209 µM
inconclusive: Potency [1] 8.33 µM [cytotoxic, partial curve] | Potency [2] 4.18 µM [cytotoxic, partial curve] | Potency [12] 1.32 µM [cytotoxic, full curve, poor fit] | Potency [13] 4.69 µM [cytotoxic, partial curve, poor fit] | Potency [17] 18.7 µM [cytotoxic, partial curve, poor fit] | Potency [6] 3.72 µM [cytotoxic, partial curve, poor fit] | Potency [7] 20.9 µM [cytotoxic, partial curve] | Potency [15] 20.9 µM [cytotoxic, partial curve] | Potency [14] 13.2 µM [cytotoxic, partial curve, poor fit] | Potency [8] 5.9 µM [cytotoxic, partial curve] | Potency [9] 7.43 µM [cytotoxic, partial curve] | Potency [16] 16.6 µM [cytotoxic, partial curve, poor fit]

More compounds

Cc1cc(-c2ccc(CC(=O)Nc3ccc(-c4cccnc4)cc3)cc2)ccn1
inactive: Potency [6] | Potency [14]
inconclusive: Potency [18] 23.5 µM [cytotoxic, partial curve, poor fit] | Potency [13] 23.5 µM [cytotoxic, single point] | Potency [15] 0.0235 µM [cytotoxic, full curve, poor fit]
active: Potency [1] 18.7 µM | Potency [17] 20.9 µM

Cc1cc(C(=O)NOCCO)c(Nc2ccc(I)cc2F)n(C)c1=O
active: Potency [18] 4.69 µM
inconclusive: Potency [1] 0.0118 µM [cytotoxic, full curve] | Potency [10] 23.5 µM [cytotoxic, partial curve, poor fit] | Potency [12] 0.0037 µM [rising, full curve, poor fit] | Potency [3] 0.001 µM | viability (% of DMSO) [4] 12% [cytotoxic] | Potency [17] 0.0166 µM [rising, full curve, poor fit]
inactive: Potency [13] | Potency [8]

C[C@@H]1CCO[C@H]2Cn3cc(C(=O)NCc4ccc(F)cc4F)c(=O)c(O)c3C(=O)N12
inactive: Potency [15]
inconclusive: Potency [1] 23.5 µM [cytotoxic, partial curve] | Potency [18] 23.5 µM [cytotoxic, partial curve, poor fit] | Potency [4] 20.9 µM [cytotoxic, partial curve, poor fit] | Potency [5] 33.2 µM [rising, single point] | Potency [13] 37.2 µM [cytotoxic, single point] | Potency [17] 16.6 µM [cytotoxic, partial curve, poor fit] | Potency [6] 29.6 µM [cytotoxic, partial curve, poor fit] | Potency [9] 11.8 µM [cytotoxic, partial curve, poor fit]
active: Potency [19] 18.7 µM | Potency [8] 23.5 µM | Potency [16] 23.5 µM
